The target of this test is MDM2 (endogenous, HEK293 cells) (human (endogenous in HEK293)) (UniProt Q00987). As to the kind of experiment: co-IP; endogenous proteins, extracts of HEK293 cells; IP with anti-MDM2 (SMP14) or anti-p73 (ER-15), control mouse IgG; lysis buffer 50 mM Tris-HCl pH 8.0, 5 mM EDTA, 150 mM NaCl, 0.5% NP-40; Western blot. A general note: A western blot detects proteins with antibodies after separation by electrophoresis.

Sequences of proteins named here, by UniProt entry; tags and fusion partners are left off.
UniProt Q00987: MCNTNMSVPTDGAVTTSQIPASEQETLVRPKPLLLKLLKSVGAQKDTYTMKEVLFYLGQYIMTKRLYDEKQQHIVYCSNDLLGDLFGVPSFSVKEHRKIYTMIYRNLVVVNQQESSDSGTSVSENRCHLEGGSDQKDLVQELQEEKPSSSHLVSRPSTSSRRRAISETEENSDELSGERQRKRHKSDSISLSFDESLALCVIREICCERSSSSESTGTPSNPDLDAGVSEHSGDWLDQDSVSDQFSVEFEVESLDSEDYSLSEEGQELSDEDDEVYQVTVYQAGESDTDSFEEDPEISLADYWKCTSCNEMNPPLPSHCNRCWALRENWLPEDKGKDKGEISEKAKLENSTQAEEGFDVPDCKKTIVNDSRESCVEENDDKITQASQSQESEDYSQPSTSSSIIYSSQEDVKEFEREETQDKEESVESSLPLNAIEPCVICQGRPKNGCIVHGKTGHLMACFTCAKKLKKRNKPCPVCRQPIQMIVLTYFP

Results are given in words; binding and its absence hold for the method and conditions named. Binding seen in cells or lysates may run through a third protein. Some results given as binding are weak or reduced against the parent protein; the word gives no strength.

B1: p73 (endogenous, HEK293 cells) (protein, UniProt O15350 1-636)
chain: MAQSTATSPDGGTTFEHLWSSLEPDSTYFDLPQSSRGNNEVVGGTDSSMDVFHLEGMTTSVMAQFNLLSSTMDQMSSRAASASPYTPEHAASVPTHSPYAQPSSTFDTMSPAPVIPSNTDYPGPHHFEVTFQQSSTAKSATWTYSPLLKKLYCQIAKTCPIQIKVSTPPPPGTAIRAMPVYKKAEHVTDVVKRCPNHELGRDFNEGQSAPASHLIRVEGNNLSQYVDDPVTGRQSVVVPYEPPQVGTEFTTILYNFMCNSSCVGGMNRRPILIIITLEMRDGQVLGRRSFEGRICACPGRDRKADEDHYREQQALNESSAKNGAASKRAFKQSPPAVPALGAGVKKRRHGDEDTYYLQVRGRENFEILMKLKESLELMELVPQPLVDSYRQQQQLLQRPSHLQPPSYGPVLSPMNKVHGGMNKLPSVNQLVGQPPPHSSAATPNLGPVGPGMLNNHGHAVPANGEMSSSHSAQSMVSGSHCTPPPPYHADPSLVSFLTGLGCPNCIEYFTSQGLQSIYHLQNLTIEDLGALKIPEQYRMTIWRGLQDLKQGHDYSTAQQLLRSSNAATISIGGSGELQRQRVMEAVHFRVRHTITIPNRGGPGGGPDEWADFGFDLPDCKARKQPIKEEFTEAEIH
Turning to B1, the binding result is “binds”.

(Values after PMC4673280.)
